From patent publication US20220054447A1, “CANNABIS COMPOSITIONS AND METHODS” (priority 2018, published 2022)

Tests used:
[1] = Trial 10: collection of cannabis vapor at 210 °C using glass fiber filter pads; conditions: RL 0.001; for Terpenes in cannabis oil, Client Sample ID N01: RPC Sample ID 293753-01; for Terpenes in cannabis oil, Client Sample ID N01 / Terpenes in cannabis oil, Client Sample ID N03: Cannabis Vapor In Hexane; for Terpenes in cannabis oil, Client Sample ID N03: RPC Sample ID 293753-03; for Cannabinoids in oil by HPLC, sample N11 (Cannabis Vapor In Methanol): RPC 293753-04, Trial 10 vapor 210° C., first trap (filter pad extract); for Cannabinoids in oil by HPLC, Client Sample ID N11: RPC Sample ID 293753-04; for Cannabinoids in oil by HPLC, Client Sample ID P11: RPC Sample ID 293753-12; for Cannabinoids in oil by HPLC, sample N12 (Cannabis Vapor In Methanol): RPC 293753-05, Trial 10, trap after filter pad; for Cannabinoids in oil by HPLC, Client Sample ID N12: RPC Sample ID 293753-05
[2] = Trial 3: effect of solvents on terpene recoveries from a gas standard; conditions: for Terpenes, concentration in sample C02: terpenes in ethanol, RPC 286508-2, RL 0.0001; for Terpenes, concentration in sample C01: terpenes in ethanol-hexane, RPC 286508-1, RL 0.0001; for Terpenes, concentration in sample C03: terpenes in hexane, RPC 286508-3, RL 0.0001

SMILES	Terpenes in cannabis oil, Client Sample ID N01 [1]	Terpenes in cannabis oil, Client Sample ID N03 [1]	Terpenes, concentration in sample C02 [2]	Terpenes, concentration in sample C01 [2]	Terpenes, concentration in sample C03 [2]	Cannabinoids in oil by HPLC, sample N11 (Cannabis Vapor In Methanol) [1]	Cannabinoids in oil by HPLC, Client Sample ID N11 ([1]; Cannabis Vapor In Methanol)	Cannabinoids in oil by HPLC, Client Sample ID P11 ([1]; Cannabis Vapor In Methanol)	Cannabinoids in oil by HPLC, sample N12 (Cannabis Vapor In Methanol) [1]	Cannabinoids in oil by HPLC, Client Sample ID N12 ([1]; Cannabis Vapor In Methanol)	Cannabinoids in oil by HPLC, Client Sample ID P12 ([1]; RPC Sample ID 293753-13, Cannabis Vapor In Methanol)
CC1=CCC2C(C1)C2(C)C (stereo not drawn) [3-carene]	<0.001 mg/mL	<0.001 mg/mL	<0.0001%	<0.0001%	<0.0001%	–	–	–	–	–	–
CC1=CCC2CC1C2(C)C (stereo not drawn) [Alpha pinene]	<0.001 mg/mL	<0.001 mg/mL	<0.0001%	0.0002%	0.0002%	–	–	–	–	–	–
CC(C)=CCC[C@](C)(O)[C@@H]1CC=C(C)CC1 [Alpha-bisabolol]	0.005 mg/mL	<0.001 mg/mL	<0.0001%	<0.0001%	<0.0001%	–	–	–	–	–	–
C=C1CCC2CC1C2(C)C (stereo not drawn) [Beta pinene]	<0.001 mg/mL	<0.001 mg/mL	<0.0001%	0.0002%	0.0002%	–	–	–	–	–	–
CC1(C)C2CCC1(C)C(O)C2 (stereo not drawn) [Borneol]	<0.001 mg/mL	<0.001 mg/mL	<0.0001%	<0.0001%	<0.0001%	–	–	–	–	–	–
CCCCCc1cc(O)c2c(c1)OC(C)(CCC=C(C)C)C=C2 (stereo not drawn) [CBC, cannabichromene]	–	–	–	–	–	0.009 mg/mL	0.009 mg/mL	0.010 mg/mL	–	–	–
C=C(C)[C@@H]1CCC(C)=C[C@H]1c1c(O)cc(CCCCC)cc1O [CBD, cannabidiol, reference compound]	–	–	–	–	–	0.123 mg/mL	0.123 mg/mL	0.088 mg/mL	–	–	–
C=C(C)[C@@H]1CCC(C)=C[C@H]1c1c(O)cc(CCCCC)c(C(=O)O)c1O [CBDA, cannabidiolic acid]	–	–	–	–	–	0.003 mg/mL	0.003 mg/mL	0.002 mg/mL	–	–	–
CCCCCc1cc(O)c(C/C=C(\C)CCC=C(C)C)c(O)c1 [CBG, cannabigerol]	–	–	–	–	–	0.010 mg/mL	0.010 mg/mL	0.012 mg/mL	–	–	–
CCCCCc1cc(O)c(C/C=C(\C)CCC=C(C)C)c(O)c1C(=O)O [CBGA, cannabigerolic acid]	–	–	–	–	–	0.001 mg/mL	0.001 mg/mL	<0.001 mg/mL	<0.001 mg/mL	<0.001 mg/mL	0.001 mg/mL
CCCCCc1cc(O)c2c(c1)OC(C)(C)c1ccc(C)cc1-2 [CBN, cannabinol]	–	–	–	–	–	0.057 mg/mL	0.057 mg/mL	0.032 mg/mL	–	–	–
C=CC(C)(O)CC/C=C(/C)CCC=C(C)C (stereo not drawn) [Cis-nerolidol]	<0.001 mg/mL	<0.001 mg/mL	<0.0001%	<0.0001%	<0.0001%	–	–	–	–	–	–
CCCCCc1cc2c(c(O)c1C(=O)O)[C@@H]1C=C(C)CC[C@H]1C(C)(C)O2 [THCA, tetrahydrocannabinolic acid]	–	–	–	–	–	–	–	0.002 mg/mL	<0.001 mg/mL	<0.001 mg/mL	–
